Assay results from US11065317B2 (Agenus Inc., priority 2018, dated 2021).

Assay: peptide synthesis
Conditions: whole synthesis

EVSGLEQLESIINFEKLTEWTSSNVME
difficulty met: the naked Ova peptide (middle panel) had a heterogeneous signal

Plain letter strings leave the end groups untold.
